The effect of the compound repeats well; differences between the knockouts mostly do not.
What was measured:
Test in all cases: relative cell number vs DMSO control (72 h) (% of DMSO); higher = less growth inhibition (more cells)
MDA-MB-231 = test system: MDA-MB-231
Procedure: (§1)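 QMAP-Seq: a pool of 5 breast cancer cell lines (ZR-75-1, SKBR3, HCC-38, MDA-MB-231, BT-20), each carrying 12 doxycycline-inducible Cas9 sgRNA perturbations (11 knockouts plus non-targeting sgNT), was treated with compounds for 72 h at four 10-fold doses (10 nM-10 uM or 1 nM-1 uM range). Barcodes were amplified and sequenced, and cell number was interpolated from 293T spike-in standard curves. The result is expressed as % of the median of DMSO wells. Two biological replicates.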

ZR-75-1 = test system: ZR-75-1
Procedure: as §1

SKBR3 = test system: SKBR3
Procedure: as §1

CC(C)(C(=O)NCC(F)(F)C(F)(F)F)C(=O)N[C@@H]1C(=O)Nc2ccccc2-c2ccccc21
relative cell number
Conditions | MDA-MB-231 | SKBR3 | ZR-75-1
sgRNA knockout: sgATF3, 10 nM | 87.2 | 130 | 88.2
sgRNA knockout: sgATF3, 100 nM | 112.9 | 118 | 119
sgRNA knockout: sgATF3, 1000 nM | 115 | 111 | 104
sgRNA knockout: sgATF3, 10000 nM | 108 | 125 | 103
sgRNA knockout: sgATF4, 10 nM | 117 | 90.4 | 70.4
sgRNA knockout: sgATF4, 100 nM | 148 | 89.3 | 123
sgRNA knockout: sgATF4, 1000 nM | 132 | 84.12 | 124
sgRNA knockout: sgATF4, 10000 nM | 143 | 105 | 118
sgRNA knockout: sgATF6, 10 nM | 97.1 | 88.6 | 113
sgRNA knockout: sgATF6, 100 nM | 115 | 91.5 | 128
sgRNA knockout: sgATF6, 1000 nM | 115.73 | 96.47 | 88.1
sgRNA knockout: sgATF6, 10000 nM | 93.1 | 100 | 110
sgRNA knockout: sgATG7, 10 nM | 108 | 113 | 92.9
sgRNA knockout: sgATG7, 100 nM | 103 | 99.9 | 105
sgRNA knockout: sgATG7, 1000 nM | 101.6 | 123 | 94.7
sgRNA knockout: sgATG7, 10000 nM | 94.2 | 106 | 89
sgRNA knockout: sgERN1, 10 nM | 89.8 | 108 | 90.2
sgRNA knockout: sgERN1, 100 nM | 107 | 96.1 | 88.3
sgRNA knockout: sgERN1, 1000 nM | 95 | 92.2 | 114
sgRNA knockout: sgERN1, 10000 nM | 104 | 103 | 96.1
sgRNA knockout: sgHSF1, 10 nM | 93.6 | 109 | –
sgRNA knockout: sgHSF1, 100 nM | 92.8 | 88.3 | –
sgRNA knockout: sgHSF1, 1000 nM | 84 | 83.1 | –
sgRNA knockout: sgHSF1, 10000 nM | 93.8 | 91.9 | –
sgRNA knockout: sgHSF2, 10 nM | 109 | 103 | 75.2
sgRNA knockout: sgHSF2, 100 nM | 128 | 100 | 99.6
sgRNA knockout: sgHSF2, 1000 nM | 114 | 102 | 90.8
sgRNA knockout: sgHSF2, 10000 nM | 98.4 | 92.6 | 81.9
sgRNA knockout: sgKEAP1, 10 nM | 102 | 99.3 | –
sgRNA knockout: sgKEAP1, 100 nM | 107 | 92.4 | –
sgRNA knockout: sgKEAP1, 1000 nM | 111 | 103 | –
sgRNA knockout: sgKEAP1, 10000 nM | 108 | 88.6 | –
sgRNA knockout: sgNFE2L2, 10 nM | 117 | 92.8 | 81.9
sgRNA knockout: sgNFE2L2, 100 nM | 116 | 117 | 101
sgRNA knockout: sgNFE2L2, 1000 nM | 103 | 81.4 | 96.1
sgRNA knockout: sgNFE2L2, 10000 nM | 120 | 97.6 | 117
sgRNA knockout: sgSLC35F2, 10 nM | 92.1 | 107 | 98.6
sgRNA knockout: sgSLC35F2, 100 nM | 116 | 108 | 113
sgRNA knockout: sgSLC35F2, 1000 nM | 111 | 99.21 | 79.1
sgRNA knockout: sgSLC35F2, 10000 nM | 95.9 | 99.8 | 116
sgRNA knockout: sgXBP1, 10 nM | 98.5 | 104 | 82.5
sgRNA knockout: sgXBP1, 100 nM | 103 | 116 | 83.8
sgRNA knockout: sgXBP1, 1000 nM | 109 | 128 | 86.4
sgRNA knockout: sgXBP1, 10000 nM | 107 | 118 | 86.6

CC(C)OC(=O)C1=CN(C(=O)c2ccc(F)c(F)c2)CC(C)(C)c2c1[nH]c1ccccc21
relative cell number
Conditions | MDA-MB-231 | SKBR3 | ZR-75-1
sgRNA knockout: sgATF3, 10 nM | 95.4 | 87.1 | 74.5
sgRNA knockout: sgATF3, 100 nM | 110 | 91.8 | 113
sgRNA knockout: sgATF3, 1000 nM | 113.1 | 92.5 | 112
sgRNA knockout: sgATF3, 10000 nM | 70.9 | 97.2 | 97.1
sgRNA knockout: sgATF4, 10 nM | 104 | 82.3 | 92.3
sgRNA knockout: sgATF4, 100 nM | 112 | 101 | 98.5
sgRNA knockout: sgATF4, 1000 nM | 86.8 | 90.3 | 126
sgRNA knockout: sgATF4, 10000 nM | 105 | 83.1 | 114
sgRNA knockout: sgATF6, 10 nM | 72.9 | 74.3 | 103
sgRNA knockout: sgATF6, 100 nM | 65.3 | 99.2 | 106
sgRNA knockout: sgATF6, 1000 nM | 101 | 90.64 | 101
sgRNA knockout: sgATF6, 10000 nM | 81.8 | 104.8 | 87
sgRNA knockout: sgATG7, 10 nM | 85.8 | 77.6 | 86.1
sgRNA knockout: sgATG7, 100 nM | 96.2 | 116 | 91.8
sgRNA knockout: sgATG7, 1000 nM | 101 | 101 | 86.4
sgRNA knockout: sgATG7, 10000 nM | 98.5 | 115 | 69.2
sgRNA knockout: sgERN1, 10 nM | 99 | 102 | 92.4
sgRNA knockout: sgERN1, 100 nM | 94.2 | 75.3 | 76.9
sgRNA knockout: sgERN1, 1000 nM | 89.6 | 134 | 83.4
sgRNA knockout: sgERN1, 10000 nM | 89.9 | 104 | 88
sgRNA knockout: sgHSF1, 10 nM | 100 | 77 | –
sgRNA knockout: sgHSF1, 100 nM | 74 | 84.1 | –
sgRNA knockout: sgHSF1, 1000 nM | 118 | 93 | –
sgRNA knockout: sgHSF1, 10000 nM | 105 | 104 | –
sgRNA knockout: sgHSF2, 10 nM | 95.2 | 91.9 | 92.1
sgRNA knockout: sgHSF2, 100 nM | 80.5 | 104 | 101
sgRNA knockout: sgHSF2, 1000 nM | 87.6 | 96.4 | 97.7
sgRNA knockout: sgHSF2, 10000 nM | 101 | 85.98 | 111
sgRNA knockout: sgKEAP1, 10 nM | 110 | 90.6 | –
sgRNA knockout: sgKEAP1, 100 nM | 106 | 108 | –
sgRNA knockout: sgKEAP1, 1000 nM | 116 | 90.3 | –
sgRNA knockout: sgKEAP1, 10000 nM | 87.9 | 101 | –
sgRNA knockout: sgNFE2L2, 10 nM | 92.7 | 102 | 90.9
sgRNA knockout: sgNFE2L2, 100 nM | 97.1 | 94.34 | 105
sgRNA knockout: sgNFE2L2, 1000 nM | 107 | 95.3 | 121
sgRNA knockout: sgNFE2L2, 10000 nM | 96 | 95.1 | 105
sgRNA knockout: sgSLC35F2, 10 nM | 96.7 | 88.8 | 111
sgRNA knockout: sgSLC35F2, 100 nM | 80 | 106 | 89.8
sgRNA knockout: sgSLC35F2, 1000 nM | 97.3 | 95.2 | 67.4
sgRNA knockout: sgSLC35F2, 10000 nM | 98.4 | 91.5 | 101
sgRNA knockout: sgXBP1, 10 nM | 103.2 | 88.5 | 91.3
sgRNA knockout: sgXBP1, 100 nM | 92 | 119 | 101
sgRNA knockout: sgXBP1, 1000 nM | 118 | 108 | 111
sgRNA knockout: sgXBP1, 10000 nM | 97.5 | 102 | 97.1

O=C1NC(=O)/C(=C/c2ccc3nccc(-c4ccncc4)c3c2)S1
relative cell number
Conditions | MDA-MB-231 | SKBR3 | ZR-75-1
sgRNA knockout: sgATF3, 10 nM | 84.5 | 63.3 | 61.2
sgRNA knockout: sgATF3, 100 nM | 82.7 | 88.7 | 104
sgRNA knockout: sgATF3, 1000 nM | 96.6 | 74.5 | 92.8
sgRNA knockout: sgATF3, 10000 nM | 53 | 31.2 | 41.5
sgRNA knockout: sgATF4, 10 nM | 93.3 | 88.8 | 123
sgRNA knockout: sgATF4, 100 nM | 108 | 110 | 111
sgRNA knockout: sgATF4, 1000 nM | 85.7 | 76.3 | 80.2
sgRNA knockout: sgATF4, 10000 nM | 72.9 | 30.6 | 41.6
sgRNA knockout: sgATF6, 10 nM | 92.5 | 74.57 | 128
sgRNA knockout: sgATF6, 100 nM | 98 | 82.6 | 66.2
sgRNA knockout: sgATF6, 1000 nM | 93.9 | 79.6 | 75.2
sgRNA knockout: sgATF6, 10000 nM | 57.4 | 31.5 | 35.9
sgRNA knockout: sgATG7, 10 nM | 87.4 | 89.7 | 108
sgRNA knockout: sgATG7, 100 nM | 93 | 119 | 118
sgRNA knockout: sgATG7, 1000 nM | 92.7 | 113 | 96.2
sgRNA knockout: sgATG7, 10000 nM | 51.9 | 35.8 | 31.5
sgRNA knockout: sgERN1, 10 nM | 118 | 114 | 92.4
sgRNA knockout: sgERN1, 100 nM | 67.4 | 103 | 94
sgRNA knockout: sgERN1, 1000 nM | 98.9 | 92 | 96.7
sgRNA knockout: sgERN1, 10000 nM | 62 | 23.2 | 46.5
sgRNA knockout: sgHSF1, 10 nM | 76.6 | 96.2 | –
sgRNA knockout: sgHSF1, 100 nM | 92.6 | 94.1 | –
sgRNA knockout: sgHSF1, 1000 nM | 102 | 80.9 | –
sgRNA knockout: sgHSF1, 10000 nM | 52.1 | 24.7 | –
sgRNA knockout: sgHSF2, 10 nM | 94.6 | 92.2 | 88.8
sgRNA knockout: sgHSF2, 100 nM | 88 | 74.5 | 108
sgRNA knockout: sgHSF2, 1000 nM | 87.4 | 74.5 | 92.4
sgRNA knockout: sgHSF2, 10000 nM | 45.4 | 31.7 | 33.9
sgRNA knockout: sgKEAP1, 10 nM | 111.5 | 68 | –
sgRNA knockout: sgKEAP1, 100 nM | 81.3 | 84.3 | –
sgRNA knockout: sgKEAP1, 1000 nM | 65.1 | 71.1 | –
sgRNA knockout: sgKEAP1, 10000 nM | 59.9 | 30.5 | –
sgRNA knockout: sgNFE2L2, 10 nM | 84.5 | 80.6 | 104
sgRNA knockout: sgNFE2L2, 100 nM | 79.1 | 85.5 | 95.4
sgRNA knockout: sgNFE2L2, 1000 nM | 96.6 | 86 | 93.1
sgRNA knockout: sgNFE2L2, 10000 nM | 66.5 | 31.4 | 43.6
sgRNA knockout: sgSLC35F2, 10 nM | 96.6 | 84 | 46.1
sgRNA knockout: sgSLC35F2, 100 nM | 106 | 109 | 117
sgRNA knockout: sgSLC35F2, 1000 nM | 83 | 61 | 66.3
sgRNA knockout: sgSLC35F2, 10000 nM | 48.5 | 29.5 | 49.9
sgRNA knockout: sgXBP1, 10 nM | 70.9 | 92.7 | 96.5
sgRNA knockout: sgXBP1, 100 nM | 97.7 | 94.6 | 96.9
sgRNA knockout: sgXBP1, 1000 nM | 83.2 | 92.1 | 88.3
sgRNA knockout: sgXBP1, 10000 nM | 56.3 | 28.9 | 36.3

Reference: the supplement of paper PMC7661543
